{"sequences": {"note": "Amino acid sequences for entries named in this document (tags omitted). A change or cut given only in a name is not applied to a line headed by its entry.", "UniProt P51450": "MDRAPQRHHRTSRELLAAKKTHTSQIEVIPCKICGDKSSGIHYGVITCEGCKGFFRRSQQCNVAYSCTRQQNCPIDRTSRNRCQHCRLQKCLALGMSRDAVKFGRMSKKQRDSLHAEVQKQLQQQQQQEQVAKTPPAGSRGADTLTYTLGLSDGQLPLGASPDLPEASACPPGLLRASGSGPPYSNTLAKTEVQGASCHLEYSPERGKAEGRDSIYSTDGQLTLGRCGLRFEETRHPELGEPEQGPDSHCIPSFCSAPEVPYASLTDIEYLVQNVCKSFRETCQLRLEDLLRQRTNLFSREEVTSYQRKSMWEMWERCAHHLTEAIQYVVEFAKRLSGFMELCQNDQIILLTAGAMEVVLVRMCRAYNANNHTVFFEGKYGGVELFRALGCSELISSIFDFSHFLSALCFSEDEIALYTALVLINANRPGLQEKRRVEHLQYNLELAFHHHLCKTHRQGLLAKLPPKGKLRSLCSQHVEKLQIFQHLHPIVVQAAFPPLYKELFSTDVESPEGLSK"}, "source": "PubChem BioAssay AID2551", "about": "(National Center for Advancing Translational Sciences (NCATS), 2010)", "note": "Among all 310,000 compounds or so, about 17,000 (5.5%) were called active. The shares of active, inactive and inconclusive entries below differ from those in the screen. The call rests on the fitted dose curve; in most records, active means well fitted inhibition curve with a large enough effect; inconclusive means small, poorly fitted or top-dose-only effect, or effect the other way; inactive means no such curve, though single readings can be large or run the other way. A potency beside an inconclusive call is a rough fit, not a confirmed value. Potency means the concentration at half of the fitted maximal effect.", "data": [{"target": "Nuclear receptor ROR-gamma (Mus musculus) (UniProt P51450)", "assay": "qHTS for inhibitors of ROR gamma transcriptional activity; further: nearly all actives have a fitted effect of over 60% in size", "conditions": "Drosophila S2 Gal4-RORgamma UAS-luciferase reporter, 20 h; series mostly up to 53.6 µM", "outline": "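ROR gamma transcriptional activity was tracked as Gal4-UAS luciferase output in stably transfected Drosophila Schneider cells, with compound added 1 hr before 700 uM copper sulfate induction and a 20 hr ambient-temperature incubation.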", "values": [{"smiles": "O=C(CSc1nc(N2CCOCC2)nc(N2CCOCC2)n1)Nc1ccc([N+](=O)[O-])cc1", "Potency": "inactive"}, {"smiles": "CCc1ccccc1NC(=S)N1CCN(c2ccccc2F)CC1", "Potency": "active: 7.08 µM"}, {"smiles": "CCOC(=O)C(C)Sc1nnc(Cc2cc(=O)[nH]c(=O)[nH]2)n1-c1ccc(Cl)cc1", "note": "(stereo not given)", "Potency": "inconclusive: 0.501 µM [inhibitor, full curve, poor fit]"}, {"smiles": "CC1C/C(=N\\NC(=O)c2ccc([N+](=O)[O-])cc2)CC(C)(C)C1", "note": "(stereo not given)", "Potency": "inconclusive: 2.82 µM [inhibitor, full curve, poor fit]"}, {"smiles": "COc1ccccc1NC1=C(NC(C)=O)C(=O)c2ccccc2C1=O", "Potency": "inconclusive: 22.4 µM [inhibitor, partial curve, poor fit]"}, {"smiles": "Cc1ccc(/C=N/NC(=O)c2ccc3ccccc3c2)s1", "Potency": "active: 3.55 µM"}, {"smiles": "O=C(NCc1ccccn1)c1ccc(=O)oc1", "Potency": "inactive"}, {"smiles": "CCC(C)c1ccc(O)c(NC(=O)c2cncc(Br)c2)c1", "note": "(stereo not given)", "Potency": "inconclusive: 15.8 µM [activator, partial curve]"}, {"smiles": "O=C(NCc1ccco1)C(=O)NCC(c1ccco1)N1CCOCC1", "note": "(stereo not given)", "Potency": "inactive"}, {"smiles": "COCCNc1nc2sc3c(c2c(=O)n1Cc1ccco1)CCCCC3", "Potency": "inconclusive: 1.78 µM [activator, full curve]"}, {"smiles": "COc1cccc(NC(=S)NNC(=O)c2c([N+](=O)[O-])c(C)nn2C)c1", "Potency": "active: 2.51 µM"}, {"smiles": "COc1cccc(NC(=S)NCc2ccncc2)c1", "Potency": "inactive"}, {"smiles": "C=CCOc1ccc(CN(C)Cc2nc3cc(C(F)(F)F)ccc3c(=O)[nH]2)cc1", "Potency": "active: 7.08 µM"}, {"smiles": "Cc1ccc(OCCOCCn2ccnc2)c(Br)c1", "Potency": "inconclusive: 1.41 µM [inhibitor, single point]"}, {"smiles": "CCOC(=O)C1=C(c2ccccc2)Nc2c(c(=O)n(C)c(=O)n2C)C1c1ccc(O)c(OC)c1", "note": "(stereo not given)", "Potency": "inactive"}, {"smiles": "CCOc1ccc2nc(NC(=O)CSC3=NCCS3)sc2c1", "Potency": "active: 14.1 µM"}, {"smiles": "Cc1cc(C)nc(/N=C(\\N)Nc2ccccc2-c2ccccc2)n1", "Potency": "inconclusive: 22.4 µM [inhibitor, single point]"}, {"smiles": "CCn1c2ccccc2c2cc(/C=N/n3cn[nH]c3=S)ccc21", "Potency": "active: 1.12 µM"}, {"smiles": "Clc1ccc(-c2n[nH]c3c2CCCC3)cc1", "Potency": "inconclusive: 25.1 µM [inhibitor, single point]"}, {"smiles": "CCN=C1S/C(=C\\c2ccc(OCC)c(OC)c2)C(=O)N1CC", "Potency": "inconclusive: 7.08 µM [activator, partial curve]"}, {"smiles": "Cn1nnc(NC(=S)NC(=O)c2cccs2)n1", "Potency": "active: 8.91 µM"}, {"smiles": "O=C(NCc1n[nH]c(=S)n1Cc1ccccc1)c1ccc(Cl)cc1Cl", "Potency": "inconclusive: 3.98 µM [inhibitor, full curve, poor fit]"}, {"smiles": "Cc1ccc(C(NC(=O)N2CCCCC2)=C(Cl)Cl)cc1F", "Potency": "active: 11.2 µM"}, {"smiles": "CCCCNC(=S)N/N=C/c1ccc(C)s1", "Potency": "active: 1 µM"}, {"smiles": "CC(=O)Oc1ccccc1C(=O)NC(C)CCc1ccccc1", "note": "(stereo not given)", "Potency": "inconclusive: 20 µM [activator, single point]"}, {"smiles": "Cc1nc(SCC(=O)N2CCN(c3ccccc3)CC2)c2oc3ccccc3c2n1", "Potency": "inconclusive: 11.2 µM [activator, partial curve, poor fit]"}, {"smiles": "Cc1cc(NC(=O)c2ccc(Cl)cc2)n(CCOC(=O)c2ccc(Cl)cc2)n1", "Potency": "inconclusive: 12.6 µM [activator, single point]"}, {"smiles": "O=C(NNS(=O)(=O)c1cc(Cl)c(Cl)cc1Cl)c1cccnc1", "Potency": "inactive"}, {"smiles": "CCSc1nnc(NC(=O)c2ccc(C)cc2)s1", "Potency": "inconclusive: 22.4 µM [inhibitor, single point]"}, {"smiles": "Cc1ccccc1NC(=S)N(CCN(C)C)C(C)c1ccccn1", "note": "(stereo not given)", "Potency": "inconclusive: 10 µM [inhibitor, partial curve]"}, {"smiles": "CCC(CC)C(=O)Nc1ccc(C)c(O)c1", "Potency": "inactive"}, {"smiles": "O=C1Nc2c(ccc(Cl)c2Cl)C(=O)C1(F)c1ccccc1", "note": "(stereo not given)", "Potency": "inconclusive: 8.91 µM [inhibitor, partial curve]"}, {"smiles": "N/C(=N\\OC(=O)C(c1ccccc1)c1ccccc1)c1ccccn1", "Potency": "inconclusive: 0.891 µM [inhibitor, full curve, poor fit]"}, {"smiles": "O=c1[nH]c(-c2ccccn2)nc(C(F)(F)F)c1Br", "Potency": "active: 2.24 µM"}, {"smiles": "O=C(Nc1cccc(-c2csc(Nc3ccccc3)n2)c1)c1cc([N+](=O)[O-])cc(C(F)(F)F)c1", "Potency": "inconclusive: 5.01 µM [activator, partial curve]"}, {"smiles": "Cc1c(C(=O)N(C)C)c2cc(Cl)ccc2n1O", "Potency": "inactive"}, {"smiles": "COc1ccc2cc3c(N)nn(C(=O)C4CCC(C(C)(C)C)CC4)c3nc2c1", "note": "(stereo not given)", "Potency": "inconclusive: 20 µM [inhibitor, single point]"}, {"smiles": "CC(C)Sc1oc(-c2ccco2)nc1S(=O)(=O)c1ccccc1", "Potency": "inconclusive: 31.6 µM [activator, single point]"}, {"smiles": "CCCCCOc1ccc2oc(=O)c3c(c2c1)CCCN3C(=O)CN1CCCC(C(=O)OCC)C1", "note": "(stereo not given)", "Potency": "inconclusive: 15.8 µM [inhibitor, single point]"}, {"smiles": "CC1(C)C(=O)C(c2ccccc2)=C2CN3C(=O)N(CCc4ccccc4)C(=O)C3(Cc3ccc(F)cc3)C=C21", "note": "(stereo not given)", "Potency": "inactive"}, {"smiles": "COc1ccc(-c2cc(-c3ccccc3O)[nH]n2)cc1", "Potency": "active: 6.31 µM"}, {"smiles": "C=CCOC(=O)C1CC=CCC1C(=O)Oc1ccc(F)cc1F", "note": "(stereo not given)", "Potency": "inconclusive: 35.5 µM [inhibitor, single point]"}, {"smiles": "CC1C(=O)C(C)(C)C(=O)OC1c1ccc([N+](=O)[O-])cc1", "note": "(stereo not given)", "Potency": "inactive"}, {"smiles": "O=C1c2ccccc2-c2ccc(C(=O)N3CCOCC3)cc21", "Potency": "inconclusive: 25.1 µM [activator, single point]"}, {"smiles": "CC(C)(C)c1nnc(NC(=O)C2CC(=O)N(CCc3ccc(F)cc3)C2)s1", "note": "(stereo not given)", "Potency": "inconclusive: 11.2 µM [activator, partial curve]"}, {"smiles": "CCN1CN(Cc2ccccc2)CNC1=S", "Potency": "active: 12.6 µM"}, {"smiles": "CCOC(=O)C1=C(C)N(C)C(=S)NC1c1ccc(Cl)cc1Cl", "note": "(stereo not given)", "Potency": "active: 7.08 µM"}, {"smiles": "CCc1nnc(N/N=C\\c2ccc(OC(C)=O)c(OC)c2)n1N", "Potency": "inconclusive: 12.6 µM [inhibitor, single point]"}, {"smiles": "N/C(=N\\NC(=O)c1cccs1)c1cc2ccccc2oc1=O", "Potency": "active: 7.08 µM"}, {"smiles": "CC(C)CC(=O)NC(=S)NNC(=O)c1cccc([N+](=O)[O-])c1", "Potency": "active: 12.6 µM"}, {"smiles": "COc1ccc(Nc2sc(C(=O)Nc3cccc(Cl)c3)c(N)c2C(=O)Nc2ccccc2OC)cc1", "Potency": "inconclusive: 20 µM [activator, single point]"}, {"smiles": "O=C(O)c1cccc(CSc2nnc(-c3ccc(Cl)cc3)o2)c1", "Potency": "inconclusive: 0.126 µM [inhibitor, full curve]"}, {"smiles": "COc1ccccc1N1CCN(C(=O)C2CCN(S(=O)(=O)c3ccc4c(c3)CC(C)N4C(=O)C3CC3)CC2)CC1", "note": "(stereo not given)", "Potency": "inconclusive: 12.6 µM [activator, single point]"}, {"smiles": "Cc1cc(NCc2ccccn2)nc2ccccc12", "Potency": "inconclusive: 20 µM [inhibitor, single point]"}, {"smiles": "Cc1ccc2oc(-c3ccccc3)c(O)c(=O)c2c1", "Potency": "active: 6.31 µM"}, {"smiles": "Cc1ccccc1NC(=O)c1c(C)cc(=O)oc1C", "Potency": "inactive"}, {"smiles": "CC(C)(C)c1csc(NNC(=O)c2ccc(Br)cc2)n1", "Potency": "active: 1.26 µM"}, {"smiles": "CCn1cc(/C=C(\\NC(=O)c2cc(OC)c(OC)c(OC)c2)C(=O)NCCN2CCOCC2)c2ccccc21", "Potency": "inactive"}, {"smiles": "COc1ccc(-c2nnc(SCCC(=O)O)n2C)cc1OC", "Potency": "inconclusive: 2.82 µM [inhibitor, single point]"}, {"smiles": "O=C(c1ccccc1)N1N=C(c2ccccc2)CC1c1ccc2nccnc2c1", "note": "(stereo not given)", "Potency": "inconclusive: 14.1 µM [activator, single point]"}, {"smiles": "CC1CCCC(NC(=O)c2ccc3c(=O)n(CC4CCCO4)c(=O)[nH]c3c2)C1C", "note": "(stereo not given)", "Potency": "inactive"}, {"smiles": "Cc1nn(CCOc2ccccc2)c(=O)n1-c1ccccc1", "Potency": "inconclusive: 5.01 µM [activator, single point]"}, {"smiles": "CCCCOc1ccc(-c2c(C#N)c(N)[nH]c(=S)c2C#N)cc1", "Potency": "inconclusive: 35.5 µM [inhibitor, single point]"}, {"smiles": "C=CC[n+]1c(-c2ccc(OCC)cc2)csc1NNC(=O)Nc1ccccc1", "Potency": "active: 15.8 µM"}, {"smiles": "Cc1ccc(C(=O)N(c2ccccn2)C(C)c2ccco2)cc1C", "note": "(stereo not given)", "Potency": "inconclusive: 35.5 µM [activator, single point]"}, {"smiles": "COc1ccc2c3c(c(=O)oc2c1OCC(=O)C(C)(C)C)CCCC3", "Potency": "inconclusive: 2.82 µM [activator, full curve, poor fit]"}, {"smiles": "COc1ccccc1C(c1nnnn1Cc1ccccc1)N1CCN(c2nc3ccccc3s2)CC1", "note": "(stereo not given)", "Potency": "inconclusive: 35.5 µM [activator, single point]"}, {"smiles": "COc1ccc2cc(/C(C)=N/NC(=O)C3CC3)ccc2c1", "Potency": "inactive"}, {"smiles": "CC(C)CNC(=O)/C(C#N)=C1\\N=C(NC(=O)c2ccco2)c2ccccc21", "Potency": "inactive"}, {"smiles": "Cc1cc(C(=O)NCCC2=CCCCC2)c(C)o1", "Potency": "active: 10 µM"}, {"smiles": "CS(=O)(=O)c1ccc(NC(=O)c2cccc(S(=O)(=O)N3CCN(Cc4ccccc4)CC3)c2)cc1", "Potency": "inconclusive: 12.6 µM [activator, single point]"}, {"smiles": "Cc1ccc(S(=O)(=O)N2CCN(Cc3cc(C(C)(C)C)ccc3O)CC2)cc1", "Potency": "inconclusive: 15.8 µM [activator, partial curve]"}, {"smiles": "Nc1nc(CCl)nc(Nc2ccc3ccccc3c2)n1", "Potency": "inconclusive: 6.31 µM [inhibitor, single point]"}, {"smiles": "Cc1cccc(C(=O)NNS(=O)(=O)c2ccccc2)c1O", "Potency": "inconclusive: 35.5 µM [inhibitor, single point]"}, {"smiles": "Cc1[nH]n2c(=O)c3c(nc2c1-c1ccc(Cl)cc1)CCC3", "Potency": "active: 2.24 µM"}]}]}
